This is an account of results in the supplement of paper PMC7666118.

By UniProt entry, the sequences of proteins in these tests, tags left out. Where a name states a change or a piece, a line headed by the entry shows the natural chain unless it says otherwise.
UniProt P07992: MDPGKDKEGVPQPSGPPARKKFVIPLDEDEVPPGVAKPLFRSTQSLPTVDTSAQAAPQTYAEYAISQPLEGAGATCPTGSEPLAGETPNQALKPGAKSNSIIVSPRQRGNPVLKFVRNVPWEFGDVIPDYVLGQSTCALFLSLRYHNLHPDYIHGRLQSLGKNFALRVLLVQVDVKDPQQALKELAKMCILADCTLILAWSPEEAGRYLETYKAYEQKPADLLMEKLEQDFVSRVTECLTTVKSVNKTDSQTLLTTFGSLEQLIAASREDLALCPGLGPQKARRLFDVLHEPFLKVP
UniProt P52799, whole entry: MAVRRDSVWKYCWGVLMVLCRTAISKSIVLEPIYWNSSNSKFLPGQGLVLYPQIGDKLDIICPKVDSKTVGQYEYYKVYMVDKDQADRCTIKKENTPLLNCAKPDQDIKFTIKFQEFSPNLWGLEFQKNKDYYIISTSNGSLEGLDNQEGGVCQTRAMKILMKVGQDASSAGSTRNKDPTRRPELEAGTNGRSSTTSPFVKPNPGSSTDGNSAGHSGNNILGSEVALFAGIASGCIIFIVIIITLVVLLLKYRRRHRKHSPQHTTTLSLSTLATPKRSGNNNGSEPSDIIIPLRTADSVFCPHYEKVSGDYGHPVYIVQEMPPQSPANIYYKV
UniProt Q13542: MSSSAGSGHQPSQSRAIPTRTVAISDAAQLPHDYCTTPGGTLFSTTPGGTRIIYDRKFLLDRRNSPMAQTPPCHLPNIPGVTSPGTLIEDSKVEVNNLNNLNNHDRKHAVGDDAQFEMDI
UniProt Q8NDI1: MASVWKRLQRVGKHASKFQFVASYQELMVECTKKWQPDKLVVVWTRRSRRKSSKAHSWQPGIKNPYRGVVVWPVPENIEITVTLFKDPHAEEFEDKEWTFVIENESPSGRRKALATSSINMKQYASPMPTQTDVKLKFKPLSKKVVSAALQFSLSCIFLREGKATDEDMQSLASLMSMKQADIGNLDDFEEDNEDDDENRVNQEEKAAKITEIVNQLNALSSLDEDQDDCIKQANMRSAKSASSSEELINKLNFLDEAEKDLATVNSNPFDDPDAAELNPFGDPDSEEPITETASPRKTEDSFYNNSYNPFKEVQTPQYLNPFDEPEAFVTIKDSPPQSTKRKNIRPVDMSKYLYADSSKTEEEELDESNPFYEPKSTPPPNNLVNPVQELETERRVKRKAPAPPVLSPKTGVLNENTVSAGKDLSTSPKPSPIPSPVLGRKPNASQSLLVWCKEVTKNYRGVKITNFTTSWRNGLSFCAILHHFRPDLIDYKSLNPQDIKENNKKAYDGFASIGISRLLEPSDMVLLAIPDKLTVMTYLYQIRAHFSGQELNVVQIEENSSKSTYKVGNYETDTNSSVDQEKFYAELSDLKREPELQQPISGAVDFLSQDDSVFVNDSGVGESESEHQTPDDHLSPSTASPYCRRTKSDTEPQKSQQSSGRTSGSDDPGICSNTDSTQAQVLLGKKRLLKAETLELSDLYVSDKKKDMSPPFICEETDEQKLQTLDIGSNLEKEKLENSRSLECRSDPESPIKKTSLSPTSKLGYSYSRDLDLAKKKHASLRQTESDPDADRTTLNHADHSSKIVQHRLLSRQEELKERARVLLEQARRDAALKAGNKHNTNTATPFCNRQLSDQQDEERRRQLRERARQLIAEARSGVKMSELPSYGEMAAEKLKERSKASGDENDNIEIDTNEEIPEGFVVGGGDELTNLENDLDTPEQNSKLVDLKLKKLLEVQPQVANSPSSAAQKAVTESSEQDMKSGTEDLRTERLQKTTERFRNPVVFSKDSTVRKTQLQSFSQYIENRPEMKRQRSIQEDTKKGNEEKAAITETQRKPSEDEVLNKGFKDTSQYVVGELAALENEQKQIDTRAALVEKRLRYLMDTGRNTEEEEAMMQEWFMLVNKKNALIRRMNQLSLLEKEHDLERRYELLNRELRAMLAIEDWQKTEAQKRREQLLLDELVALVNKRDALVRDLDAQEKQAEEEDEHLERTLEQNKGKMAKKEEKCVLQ
UniProt Q9Y2H0: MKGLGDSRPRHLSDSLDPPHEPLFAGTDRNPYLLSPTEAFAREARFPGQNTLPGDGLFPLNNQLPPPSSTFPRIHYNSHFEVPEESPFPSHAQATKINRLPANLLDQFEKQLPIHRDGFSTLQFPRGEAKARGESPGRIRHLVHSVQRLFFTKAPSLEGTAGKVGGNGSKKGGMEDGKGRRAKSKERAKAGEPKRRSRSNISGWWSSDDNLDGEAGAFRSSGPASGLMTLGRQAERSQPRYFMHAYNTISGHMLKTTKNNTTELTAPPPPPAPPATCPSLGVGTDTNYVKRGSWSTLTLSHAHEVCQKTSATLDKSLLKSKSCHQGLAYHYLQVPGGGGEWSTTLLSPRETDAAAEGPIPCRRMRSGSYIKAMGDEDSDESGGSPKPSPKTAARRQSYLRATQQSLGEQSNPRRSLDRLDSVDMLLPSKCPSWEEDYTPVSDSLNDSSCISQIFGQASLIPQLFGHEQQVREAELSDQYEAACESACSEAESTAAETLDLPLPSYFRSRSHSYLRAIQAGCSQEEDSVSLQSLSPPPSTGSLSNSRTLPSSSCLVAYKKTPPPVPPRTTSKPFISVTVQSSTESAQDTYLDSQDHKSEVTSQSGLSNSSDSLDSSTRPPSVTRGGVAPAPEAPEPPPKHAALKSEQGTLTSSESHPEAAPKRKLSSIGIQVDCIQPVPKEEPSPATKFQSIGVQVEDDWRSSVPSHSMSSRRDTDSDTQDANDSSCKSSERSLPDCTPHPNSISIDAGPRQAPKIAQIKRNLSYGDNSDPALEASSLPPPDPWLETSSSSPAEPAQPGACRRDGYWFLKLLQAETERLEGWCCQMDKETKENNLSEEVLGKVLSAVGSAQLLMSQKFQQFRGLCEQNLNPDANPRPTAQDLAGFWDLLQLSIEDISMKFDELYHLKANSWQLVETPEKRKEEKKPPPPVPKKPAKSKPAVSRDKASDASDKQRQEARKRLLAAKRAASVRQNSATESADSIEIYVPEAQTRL
UniProt Q14919: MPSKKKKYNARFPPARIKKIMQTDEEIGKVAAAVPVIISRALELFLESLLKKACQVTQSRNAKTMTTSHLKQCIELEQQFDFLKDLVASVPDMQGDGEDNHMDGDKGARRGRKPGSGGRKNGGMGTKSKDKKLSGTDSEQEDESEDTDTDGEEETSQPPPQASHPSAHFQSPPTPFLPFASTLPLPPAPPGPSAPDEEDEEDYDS
UniProt Q92889: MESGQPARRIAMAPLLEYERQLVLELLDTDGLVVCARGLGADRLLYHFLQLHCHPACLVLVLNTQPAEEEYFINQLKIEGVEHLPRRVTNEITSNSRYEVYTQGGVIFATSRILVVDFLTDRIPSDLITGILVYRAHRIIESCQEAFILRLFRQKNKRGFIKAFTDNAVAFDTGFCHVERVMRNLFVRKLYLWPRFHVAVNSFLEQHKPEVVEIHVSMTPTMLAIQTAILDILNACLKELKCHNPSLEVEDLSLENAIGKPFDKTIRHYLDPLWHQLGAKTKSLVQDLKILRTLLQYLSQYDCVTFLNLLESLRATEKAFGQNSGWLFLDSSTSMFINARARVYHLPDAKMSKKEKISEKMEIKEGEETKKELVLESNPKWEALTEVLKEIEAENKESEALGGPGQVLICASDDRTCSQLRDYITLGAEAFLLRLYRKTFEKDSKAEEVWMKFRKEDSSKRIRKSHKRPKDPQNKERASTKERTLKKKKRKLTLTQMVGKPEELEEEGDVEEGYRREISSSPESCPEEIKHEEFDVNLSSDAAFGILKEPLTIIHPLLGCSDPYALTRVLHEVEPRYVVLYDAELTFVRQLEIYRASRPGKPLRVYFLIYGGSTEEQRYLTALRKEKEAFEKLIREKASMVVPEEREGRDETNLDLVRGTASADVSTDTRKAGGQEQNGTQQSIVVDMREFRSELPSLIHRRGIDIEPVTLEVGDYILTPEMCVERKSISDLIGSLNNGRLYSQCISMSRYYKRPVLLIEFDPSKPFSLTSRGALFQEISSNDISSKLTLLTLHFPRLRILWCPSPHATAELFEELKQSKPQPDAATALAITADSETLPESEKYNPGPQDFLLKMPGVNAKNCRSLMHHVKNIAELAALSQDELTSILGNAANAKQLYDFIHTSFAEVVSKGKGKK
UniProt Q9BVJ7: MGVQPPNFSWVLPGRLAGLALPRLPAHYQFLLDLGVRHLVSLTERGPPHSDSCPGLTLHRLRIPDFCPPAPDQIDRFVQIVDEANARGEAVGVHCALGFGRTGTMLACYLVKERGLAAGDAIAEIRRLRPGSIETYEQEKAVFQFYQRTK
UniProt Q9UBQ5, whole entry: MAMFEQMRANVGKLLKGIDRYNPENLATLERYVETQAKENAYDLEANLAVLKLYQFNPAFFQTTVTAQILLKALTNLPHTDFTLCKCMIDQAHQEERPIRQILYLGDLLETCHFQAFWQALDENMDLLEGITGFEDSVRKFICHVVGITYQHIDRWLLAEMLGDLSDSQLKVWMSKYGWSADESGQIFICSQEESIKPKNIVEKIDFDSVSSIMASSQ
UniProt P33316: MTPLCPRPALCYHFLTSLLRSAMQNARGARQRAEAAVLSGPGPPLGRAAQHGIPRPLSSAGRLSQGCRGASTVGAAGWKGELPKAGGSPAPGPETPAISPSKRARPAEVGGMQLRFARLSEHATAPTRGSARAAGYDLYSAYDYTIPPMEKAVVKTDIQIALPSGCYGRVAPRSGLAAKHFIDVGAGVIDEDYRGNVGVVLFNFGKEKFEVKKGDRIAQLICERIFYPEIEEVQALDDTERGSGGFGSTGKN
UniProt O75354: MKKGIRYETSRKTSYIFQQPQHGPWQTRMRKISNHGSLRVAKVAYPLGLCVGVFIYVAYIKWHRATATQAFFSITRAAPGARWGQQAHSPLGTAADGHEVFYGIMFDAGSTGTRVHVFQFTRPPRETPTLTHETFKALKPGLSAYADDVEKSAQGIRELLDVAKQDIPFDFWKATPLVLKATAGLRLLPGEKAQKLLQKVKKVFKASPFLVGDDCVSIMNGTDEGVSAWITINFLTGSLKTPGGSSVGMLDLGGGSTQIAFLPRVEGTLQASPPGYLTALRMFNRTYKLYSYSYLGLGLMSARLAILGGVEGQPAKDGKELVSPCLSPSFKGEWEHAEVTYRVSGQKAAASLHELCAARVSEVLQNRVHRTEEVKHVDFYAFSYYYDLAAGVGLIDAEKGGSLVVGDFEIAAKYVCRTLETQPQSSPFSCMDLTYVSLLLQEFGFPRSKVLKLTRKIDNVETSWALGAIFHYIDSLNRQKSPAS
UniProt Q7RTS9: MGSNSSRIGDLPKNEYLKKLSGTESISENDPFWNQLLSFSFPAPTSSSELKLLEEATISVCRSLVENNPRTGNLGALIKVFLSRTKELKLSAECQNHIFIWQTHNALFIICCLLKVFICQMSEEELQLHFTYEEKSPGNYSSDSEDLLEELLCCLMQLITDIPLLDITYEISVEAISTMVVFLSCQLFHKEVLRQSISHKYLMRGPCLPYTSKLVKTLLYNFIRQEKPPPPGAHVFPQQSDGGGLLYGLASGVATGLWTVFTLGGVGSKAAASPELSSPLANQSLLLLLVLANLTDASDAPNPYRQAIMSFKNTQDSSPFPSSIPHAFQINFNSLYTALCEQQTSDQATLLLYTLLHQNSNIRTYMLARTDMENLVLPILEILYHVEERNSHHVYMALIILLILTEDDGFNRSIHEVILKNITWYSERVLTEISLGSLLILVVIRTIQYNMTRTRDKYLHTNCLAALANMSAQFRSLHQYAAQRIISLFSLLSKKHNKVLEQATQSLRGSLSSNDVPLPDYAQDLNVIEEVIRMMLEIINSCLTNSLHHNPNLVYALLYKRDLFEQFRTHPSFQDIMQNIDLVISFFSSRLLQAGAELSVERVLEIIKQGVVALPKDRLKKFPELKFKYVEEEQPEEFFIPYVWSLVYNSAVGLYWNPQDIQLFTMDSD
UniProt Q9H3H5: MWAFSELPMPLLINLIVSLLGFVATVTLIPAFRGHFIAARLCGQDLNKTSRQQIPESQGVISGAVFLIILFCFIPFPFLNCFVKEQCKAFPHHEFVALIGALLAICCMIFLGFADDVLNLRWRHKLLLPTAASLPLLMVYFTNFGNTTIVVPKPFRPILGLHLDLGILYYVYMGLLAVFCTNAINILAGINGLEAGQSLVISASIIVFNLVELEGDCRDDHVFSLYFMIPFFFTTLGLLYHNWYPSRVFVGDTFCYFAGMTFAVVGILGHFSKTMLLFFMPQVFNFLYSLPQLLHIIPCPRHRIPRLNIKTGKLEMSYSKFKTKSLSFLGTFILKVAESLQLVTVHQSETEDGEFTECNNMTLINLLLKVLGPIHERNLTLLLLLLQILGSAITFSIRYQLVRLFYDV
UniProt Q9BU89: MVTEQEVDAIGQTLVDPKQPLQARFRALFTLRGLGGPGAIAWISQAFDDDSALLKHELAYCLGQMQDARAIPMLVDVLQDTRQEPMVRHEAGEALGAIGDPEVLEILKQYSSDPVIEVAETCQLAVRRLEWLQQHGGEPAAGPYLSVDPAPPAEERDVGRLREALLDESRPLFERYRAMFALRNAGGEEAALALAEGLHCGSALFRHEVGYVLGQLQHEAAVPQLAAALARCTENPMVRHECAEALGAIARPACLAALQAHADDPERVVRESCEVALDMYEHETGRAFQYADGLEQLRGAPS

The list shows a part of the results.

Compound in the assay: COc1ccc(Cn2ccc3ccc(C(=O)NO)cc32)cc1
Description: dose-dependent thermal stabilisation call (2D-TPP, DLPTP, 10% FDR) (binary (1 = stabilised)); higher = stabilised by the compound. To be noted: system: HL-60 intact cells; concentration range 0.04-10 µM.
Regarding EIF2AK2 (UniProt P19525), the “dose-dependent thermal stabilisation call” value was inactive: 0.

Regarding DSN1 (UniProt Q9H410), the “dose-dependent thermal stabilisation call” value was inactive: 0.

With ERCC1 (UniProt P07992), the “dose-dependent thermal stabilisation call” value was inactive: 0.

With DNAJC12 (UniProt Q9UKB3), the “dose-dependent thermal stabilisation call” value was inactive: 0.

Regarding ERMP1 (UniProt Q7Z2K6), the “dose-dependent thermal stabilisation call” value was inactive: 0.

With EIF2C2 (UniProt Q9UKV8), the “dose-dependent thermal stabilisation call” value was inactive: 0.

EFNB2 (UniProt P52799): the “dose-dependent thermal stabilisation call” value is inactive: 0.

For EIF4EBP2 (UniProt Q13542), the “dose-dependent thermal stabilisation call” value is inactive: 0.

With EIF4A3 (UniProt P38919), the “dose-dependent thermal stabilisation call” value was inactive: 0.

For the target DNAJB2 (UniProt P25686), the “dose-dependent thermal stabilisation call” value was inactive: 0.

With EHBP1 (UniProt Q8NDI1), the “dose-dependent thermal stabilisation call” value is inactive: 0.

For the target DLGAP4 (UniProt Q9Y2H0), the “dose-dependent thermal stabilisation call” value was inactive: 0.

Take DPP7 (UniProt Q9UHL4): the “dose-dependent thermal stabilisation call” value is inactive: 0.

As to EIF3M (UniProt Q7L2H7), the “dose-dependent thermal stabilisation call” value was inactive: 0.

In the case of DTWD2 (UniProt Q8NBA8), the “dose-dependent thermal stabilisation call” value was inactive: 0.

As for ERC1 (UniProt Q8IUD2), the “dose-dependent thermal stabilisation call” value was inactive: 0.

For the target DRAP1 (UniProt Q14919), the “dose-dependent thermal stabilisation call” value is inactive: 0.

Regarding ERCC4 (UniProt Q92889), the “dose-dependent thermal stabilisation call” value is inactive: 0.

On to DOLPP1 (UniProt Q86YN1), for which the “dose-dependent thermal stabilisation call” value is inactive: 0.

DNMBP (UniProt Q6XZF7): the “dose-dependent thermal stabilisation call” value is inactive: 0.

Take DMXL1 (UniProt Q9Y485): the “dose-dependent thermal stabilisation call” value is inactive: 0.

As to ERBB2IP (UniProt Q96RT1), the “dose-dependent thermal stabilisation call” value was inactive: 0.

Consider EHMT2 (UniProt Q96KQ7), for which the “dose-dependent thermal stabilisation call” value was inactive: 0.

As for DNAJC16 (UniProt Q9Y2G8), the “dose-dependent thermal stabilisation call” value is inactive: 0.

Regarding DYNC1H1 (UniProt Q14204), the “dose-dependent thermal stabilisation call” value is inactive: 0.

Take DUSP23 (UniProt Q9BVJ7): the “dose-dependent thermal stabilisation call” value was inactive: 0.

Regarding EIF3K (UniProt Q9UBQ5), the “dose-dependent thermal stabilisation call” value was inactive: 0.

For DUT (UniProt P33316), the “dose-dependent thermal stabilisation call” value was inactive: 0.

As to ERF (UniProt P50548), the “dose-dependent thermal stabilisation call” value was inactive: 0.

Turning to ENTPD6 (UniProt O75354), the “dose-dependent thermal stabilisation call” value was inactive: 0.

Turning to DYM (UniProt Q7RTS9), the “dose-dependent thermal stabilisation call” value was inactive: 0.

EEF1B2 (UniProt P24534): the “dose-dependent thermal stabilisation call” value was inactive: 0.

With ESD (UniProt P10768), the “dose-dependent thermal stabilisation call” value was inactive: 0.

On to DPAGT1 (UniProt Q9H3H5), for which the “dose-dependent thermal stabilisation call” value is inactive: 0.

Turning to DYNC2LI1 (UniProt Q8TCX1), the “dose-dependent thermal stabilisation call” value is inactive: 0.

Take DOHH (UniProt Q9BU89): the “dose-dependent thermal stabilisation call” value is inactive: 0.

Consider EHMT1 (UniProt Q9H9B1), for which the “dose-dependent thermal stabilisation call” value is inactive: 0.

For DNAJC17 (UniProt Q9NVM6), the “dose-dependent thermal stabilisation call” value was inactive: 0.
